From publication PMC7527347
These are yes or no findings as the source states them, for the method shown. In cells and extracts the contact can be indirect. Sequences can lack the tags named with a protein.

By UniProt entry, the sequences of proteins in these tests, tags left out. Residues count along the entry.
UniProt P19838, residues 1-433: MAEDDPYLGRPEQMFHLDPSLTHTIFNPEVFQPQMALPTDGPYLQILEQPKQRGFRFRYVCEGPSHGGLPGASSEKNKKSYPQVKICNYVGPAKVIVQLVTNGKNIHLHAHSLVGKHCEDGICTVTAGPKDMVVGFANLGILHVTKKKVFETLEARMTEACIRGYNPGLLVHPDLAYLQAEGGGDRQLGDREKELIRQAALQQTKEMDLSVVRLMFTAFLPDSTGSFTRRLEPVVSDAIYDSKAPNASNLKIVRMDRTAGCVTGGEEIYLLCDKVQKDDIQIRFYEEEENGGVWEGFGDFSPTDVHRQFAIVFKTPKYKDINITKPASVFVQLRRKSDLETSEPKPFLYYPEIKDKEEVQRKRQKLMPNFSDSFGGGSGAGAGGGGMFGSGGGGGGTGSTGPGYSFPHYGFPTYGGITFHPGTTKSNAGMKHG
UniProt Q04206: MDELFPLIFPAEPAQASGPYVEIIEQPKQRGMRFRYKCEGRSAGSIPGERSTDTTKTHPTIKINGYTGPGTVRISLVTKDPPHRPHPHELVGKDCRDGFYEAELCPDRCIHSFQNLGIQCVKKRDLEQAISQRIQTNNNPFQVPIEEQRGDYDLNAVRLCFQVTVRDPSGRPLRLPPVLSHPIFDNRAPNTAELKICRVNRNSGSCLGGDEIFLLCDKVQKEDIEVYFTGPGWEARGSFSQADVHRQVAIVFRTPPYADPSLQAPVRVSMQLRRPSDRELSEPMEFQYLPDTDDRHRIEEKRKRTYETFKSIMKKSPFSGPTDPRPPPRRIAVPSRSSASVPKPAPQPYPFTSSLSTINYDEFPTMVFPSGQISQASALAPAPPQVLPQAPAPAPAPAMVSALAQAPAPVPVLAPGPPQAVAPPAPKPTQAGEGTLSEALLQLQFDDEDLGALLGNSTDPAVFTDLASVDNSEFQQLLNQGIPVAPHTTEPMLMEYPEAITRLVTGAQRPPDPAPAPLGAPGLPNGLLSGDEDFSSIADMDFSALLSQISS

What was measured:
[1] = target: NF-κB p50 (human (endogenous in HEK-293T)) (UniProt P19838); experiment: co-IP; extracts from HEK-293T cells transfected with the HA-tagged proteins; association with p65/RelA and p50 read by Western blot
[2] = target: NF-κB p65/RelA (human (endogenous in HEK-293T)) (UniProt Q04206); experiment: as above

B1: HA-tagged NFKI-1 (protein, UniProt G5EDE9 1-611)
chain: MATVAPKGNCLVARAIPSDSHADQLTDLLCKLSVNGDANQKSVNKFESQHGVTPSDFRDIQNIRSSALAKKTKTSKFQLDGVTLFADLTPNSKSKKKTENQETKEKDEEAEEKKDGPPKDDKELKMKKEKEQEDENAELDEQKKDGDLLGRGPVHNVRVATGGSHPYHRAQIPYGCAAQTPITDISAYTGYGSGYECGSTWSLSPDTTIGSISASTTPDTVLSSDGYGSASPPQHSPKESLQSPFSDISSADTSRVLTPENNELPESLQDFILQYSNQYTKEESIRGRPPSADSGVSSPMSARSAPYASPHVPQGTCSGPTTPSFNQTRLSPRTSENGITAKQRLNAIIPESDLATGFHWACTTWKNVLTNRDADGDTPLHIVAAHNDLGKIYALCETLRKTMNENDDNVFNVSNNFGETPLYVAVLQRSIEVVEYLLELGASPNSRSSRAVGDSPLHFATARGMNNMVEALLSKREIRVNETNDDGQTSLLCAVKMHGMMDEQTQHKIDNKSIIEMLIKAGADPTIAETSTGKTIVHHAVDKMDVELLDFLKTVVNEDTFTELANLSDFHGDTAVDLLCSSTQNEDTNNVRENLYIRLLTSGAVPNKSRA
[1]
  binding: no binding
[2]
  binding: no binding
